Reference: the supplement of paper PMC11438910
This is one part of the list. Only a few entries rise above the background.

How the values were obtained:
Test in all cases: fluorescence intensity of antibody binding to polysaccharide-coupled beads; higher = stronger binding
[1] = target: pneumococcal polysaccharide Pn2
[2] = target: pneumococcal polysaccharide Pn20A
[3] = target: pneumococcal polysaccharide Pn20B
[4] = target: pneumococcal polysaccharide Pn21
[5] = target: pneumococcal polysaccharide Pn22A
[6] = target: pneumococcal polysaccharide Pn22F
[7] = target: pneumococcal polysaccharide Pn23A
[8] = target: pneumococcal polysaccharide Pn23B
[9] = target: pneumococcal polysaccharide Pn23F
[10] = target: pneumococcal polysaccharide Pn24A
[11] = target: pneumococcal polysaccharide Pn24B
[12] = target: pneumococcal polysaccharide Pn24F
[13] = target: pneumococcal polysaccharide Pn25A
[14] = target: pneumococcal polysaccharide Pn25F
[15] = target: pneumococcal polysaccharide Pn27
[16] = target: pneumococcal polysaccharide Pn28A
[17] = target: pneumococcal polysaccharide Pn28F
[18] = target: pneumococcal polysaccharide Pn29
[19] = target: pneumococcal polysaccharide Pn3
[20] = target: pneumococcal polysaccharide Pn31
[21] = target: pneumococcal polysaccharide Pn32A
[22] = target: pneumococcal polysaccharide Pn32F
[23] = target: pneumococcal polysaccharide Pn33A
[24] = target: pneumococcal polysaccharide Pn33B
[25] = antibody concentration 2337.65 ng/mL
[26] = antibody concentration 12500 ng/mL
[27] = antibody concentration 0.1 ng/mL
[28] = antibody concentration 0.534724 ng/mL
[29] = antibody concentration 2.8593 ng/mL
[30] = antibody concentration 15.2894 ng/mL
[31] = antibody concentration 81.7561 ng/mL
[32] = antibody concentration 437.17 ng/mL

B1: 4-80.4 (protein)
chain 1: QVQLQESGPGLVKPSETLSLTCAVSGGSFSSYWWSWIRQSPGKGLEWIGEISGNSGSTNYNPSLKSRVTISKDASKNQFSLKLSSVTAADTAVYYCARYKEYWGQGVLVTVSS
chain 2: DVVMTQSPLSLLITPGQPASISCRSSQSLVHSNGNTYLSWYQQKPGQPPRRLLYEVSNRDSGVPDRFSGSGAGTDFTLKISRVEAEDVGVYYCGQGTHLPYSFGQGTKVEIK
Work on B1 yielded a fluorescence intensity [1, 25] of 23.5 MFI, a fluorescence intensity [1, 26] of 27.5 MFI and a fluorescence intensity [2, 27] of 24 MFI. It also gave a fluorescence intensity [2, 28] of 22.5 MFI, a fluorescence intensity [2, 29] of 23 MFI and a fluorescence intensity [2, 30] of 22.5 MFI. For the same binder, the fluorescence intensity [2, 31] was 24.5 MFI, the fluorescence intensity [2, 32] was 23 MFI and the fluorescence intensity [2, 25] was 26.5 MFI. It also gave a fluorescence intensity [2, 26] of 62.2 MFI, a fluorescence intensity [3, 27] of 23.5 MFI and a fluorescence intensity [3, 28] of 23.8 MFI. For the same binder, the fluorescence intensity [3, 29] was 24.5 MFI, the fluorescence intensity [3, 30] was 24 MFI and the fluorescence intensity [3, 31] was 23.5 MFI. It also gave a fluorescence intensity [3, 32] of 23 MFI, a fluorescence intensity [3, 25] of 25.5 MFI and a fluorescence intensity [3, 26] of 32.2 MFI. It also gave a fluorescence intensity [4, 27] of 18.5 MFI, a fluorescence intensity [4, 28] of 19 MFI and a fluorescence intensity [4, 29] of 19 MFI. For the same binder, the fluorescence intensity [4, 30] was 18 MFI, the fluorescence intensity [4, 31] was 18.5 MFI and the fluorescence intensity [4, 32] was 18.5 MFI. For the same binder, the fluorescence intensity [4, 25] was 19 MFI, the fluorescence intensity [4, 26] was 21 MFI and the fluorescence intensity [5, 27] was 21.8 MFI. It also gave a fluorescence intensity [5, 28] of 21 MFI, a fluorescence intensity [5, 29] of 20 MFI and a fluorescence intensity [5, 30] of 20.2 MFI. The fluorescence intensity [5, 31] was 22 MFI, the fluorescence intensity [5, 32] was 21.5 MFI and the fluorescence intensity [5, 25] was 24.5 MFI. It also gave a fluorescence intensity [5, 26] of 39.5 MFI, a fluorescence intensity [6, 27] of 33.8 MFI and a fluorescence intensity [6, 28] of 26.2 MFI. The fluorescence intensity [6, 29] was 29.2 MFI, the fluorescence intensity [6, 30] was 31.5 MFI and the fluorescence intensity [6, 31] was 28.2 MFI. The fluorescence intensity [6, 32] was 31.5 MFI, the fluorescence intensity [6, 25] was 30.5 MFI and the fluorescence intensity [6, 26] was 37.2 MFI. It also gave a fluorescence intensity [7, 27] of 25.5 MFI, a fluorescence intensity [7, 28] of 26.5 MFI and a fluorescence intensity [7, 29] of 27 MFI. It also gave a fluorescence intensity [7, 30] of 25.5 MFI, a fluorescence intensity [7, 31] of 25 MFI and a fluorescence intensity [7, 32] of 28.8 MFI. For the same binder, the fluorescence intensity [7, 25] was 38.5 MFI, the fluorescence intensity [7, 26] was 64.2 MFI and the fluorescence intensity [8, 27] was 31.5 MFI. It also gave a fluorescence intensity [8, 28] of 29.8 MFI, a fluorescence intensity [8, 29] of 29 MFI and a fluorescence intensity [8, 30] of 29.8 MFI. The fluorescence intensity [8, 31] was 32 MFI, the fluorescence intensity [8, 32] was 31 MFI and the fluorescence intensity [8, 25] was 31.5 MFI. It also gave a fluorescence intensity [8, 26] of 37 MFI, a fluorescence intensity [9, 27] of 16.8 MFI and a fluorescence intensity [9, 28] of 18.5 MFI. For the same binder, the fluorescence intensity [9, 29] was 20 MFI, the fluorescence intensity [9, 30] was 18.5 MFI and the fluorescence intensity [9, 31] was 19.5 MFI. The fluorescence intensity [9, 32] was 17.5 MFI, the fluorescence intensity [9, 25] was 19.5 MFI and the fluorescence intensity [9, 26] was 27.2 MFI. It also gave a fluorescence intensity [10, 27] of 16.5 MFI, a fluorescence intensity [10, 28] of 14.8 MFI and a fluorescence intensity [10, 29] of 15.5 MFI. For the same binder, the fluorescence intensity [10, 30] was 16 MFI, the fluorescence intensity [10, 31] was 17.5 MFI and the fluorescence intensity [10, 32] was 15.5 MFI. It also gave a fluorescence intensity [10, 25] of 16.2 MFI, a fluorescence intensity [10, 26] of 21 MFI and a fluorescence intensity [11, 27] of 20 MFI. It also gave a fluorescence intensity [11, 28] of 18.5 MFI, a fluorescence intensity [11, 29] of 17.5 MFI and a fluorescence intensity [11, 30] of 19 MFI. The fluorescence intensity [11, 31] was 18.5 MFI, the fluorescence intensity [11, 32] was 20.2 MFI and the fluorescence intensity [11, 25] was 21 MFI. The fluorescence intensity [11, 26] was 32.2 MFI, the fluorescence intensity [12, 27] was 20.2 MFI and the fluorescence intensity [12, 28] was 20.5 MFI. For the same binder, the fluorescence intensity [12, 29] was 18.2 MFI, the fluorescence intensity [12, 30] was 20.8 MFI and the fluorescence intensity [12, 31] was 16.8 MFI. The fluorescence intensity [12, 32] was 19.5 MFI, the fluorescence intensity [12, 25] was 25.5 MFI and the fluorescence intensity [12, 26] was 31.5 MFI. For the same binder, the fluorescence intensity [13, 27] was 23.8 MFI, the fluorescence intensity [13, 28] was 23.5 MFI and the fluorescence intensity [13, 29] was 23.5 MFI. It also gave a fluorescence intensity [13, 30] of 23 MFI, a fluorescence intensity [13, 31] of 26 MFI and a fluorescence intensity [13, 32] of 25 MFI. The fluorescence intensity [13, 25] was 26.5 MFI, the fluorescence intensity [13, 26] was 32 MFI and the fluorescence intensity [14, 27] was 29.5 MFI. For the same binder, the fluorescence intensity [14, 28] was 30 MFI, the fluorescence intensity [14, 29] was 30.5 MFI and the fluorescence intensity [14, 30] was 29.5 MFI. For the same binder, the fluorescence intensity [14, 31] was 31 MFI, the fluorescence intensity [14, 32] was 30.5 MFI and the fluorescence intensity [14, 25] was 31.5 MFI. The fluorescence intensity [14, 26] was 37.5 MFI, the fluorescence intensity [15, 27] was 16 MFI and the fluorescence intensity [15, 28] was 17 MFI. The fluorescence intensity [15, 29] was 17.8 MFI, the fluorescence intensity [15, 30] was 17 MFI and the fluorescence intensity [15, 31] was 15.5 MFI. The fluorescence intensity [15, 32] was 18.2 MFI, the fluorescence intensity [15, 25] was 21 MFI and the fluorescence intensity [15, 26] was 62.5 MFI. It also gave a fluorescence intensity [16, 27] of 27 MFI, a fluorescence intensity [16, 28] of 27.5 MFI and a fluorescence intensity [16, 29] of 28.5 MFI. For the same binder, the fluorescence intensity [16, 30] was 27 MFI, the fluorescence intensity [16, 31] was 27.5 MFI and the fluorescence intensity [16, 32] was 27.2 MFI. For the same binder, the fluorescence intensity [16, 25] was 28.2 MFI, the fluorescence intensity [16, 26] was 33.5 MFI and the fluorescence intensity [17, 27] was 28.5 MFI. The fluorescence intensity [17, 28] was 29 MFI, the fluorescence intensity [17, 29] was 30 MFI and the fluorescence intensity [17, 30] was 29.2 MFI. It also gave a fluorescence intensity [17, 31] of 31 MFI, a fluorescence intensity [17, 32] of 29.8 MFI and a fluorescence intensity [17, 25] of 31 MFI. The fluorescence intensity [17, 26] was 50.2 MFI, the fluorescence intensity [18, 27] was 15.5 MFI and the fluorescence intensity [18, 28] was 16.8 MFI. The fluorescence intensity [18, 29] was 16 MFI, the fluorescence intensity [18, 30] was 14.5 MFI and the fluorescence intensity [18, 31] was 17 MFI. It also gave a fluorescence intensity [18, 32] of 17 MFI, a fluorescence intensity [18, 25] of 18 MFI and a fluorescence intensity [18, 26] of 42 MFI. For the same binder, the fluorescence intensity [19, 27] was 13 MFI, the fluorescence intensity [19, 28] was 13 MFI and the fluorescence intensity [19, 29] was 14 MFI. The fluorescence intensity [19, 30] was 16.5 MFI, the fluorescence intensity [19, 31] was 40.2 MFI and the fluorescence intensity [19, 32] was 214 MFI. The fluorescence intensity [19, 25] was 808 MFI, the fluorescence intensity [19, 26] was 4230 MFI and the fluorescence intensity [20, 27] was 13.2 MFI. It also gave a fluorescence intensity [20, 28] of 14 MFI, a fluorescence intensity [20, 29] of 14 MFI and a fluorescence intensity [20, 30] of 13.5 MFI. For the same binder, the fluorescence intensity [20, 31] was 14.5 MFI, the fluorescence intensity [20, 32] was 14 MFI and the fluorescence intensity [20, 25] was 16.5 MFI. For the same binder, the fluorescence intensity [20, 26] was 41.5 MFI, the fluorescence intensity [21, 27] was 16.5 MFI and the fluorescence intensity [21, 28] was 17 MFI. The fluorescence intensity [21, 29] was 18.8 MFI, the fluorescence intensity [21, 30] was 18 MFI and the fluorescence intensity [21, 31] was 17 MFI. For the same binder, the fluorescence intensity [21, 32] was 17.5 MFI, the fluorescence intensity [21, 25] was 20.2 MFI and the fluorescence intensity [21, 26] was 29.8 MFI. The fluorescence intensity [22, 27] was 28 MFI, the fluorescence intensity [22, 28] was 28.5 MFI and the fluorescence intensity [22, 29] was 28 MFI. For the same binder, the fluorescence intensity [22, 30] was 26.8 MFI, the fluorescence intensity [22, 31] was 28.2 MFI and the fluorescence intensity [22, 32] was 28 MFI. It also gave a fluorescence intensity [22, 25] of 30.5 MFI, a fluorescence intensity [22, 26] of 47.5 MFI and a fluorescence intensity [23, 27] of 18.5 MFI. For the same binder, the fluorescence intensity [23, 28] was 19 MFI, the fluorescence intensity [23, 29] was 18.5 MFI and the fluorescence intensity [23, 30] was 19 MFI. The fluorescence intensity [23, 31] was 18 MFI, the fluorescence intensity [23, 32] was 19 MFI and the fluorescence intensity [23, 25] was 31.5 MFI. It also gave a fluorescence intensity [23, 26] of 158 MFI, a fluorescence intensity [24, 27] of 17.8 MFI and a fluorescence intensity [24, 28] of 17.5 MFI.
